Laboratory results taken from patent US10960011B2, “Compositions for the treatment of ischemic ulcers and stretch marks” (SERVICIO ANDALUZ DE SALUD, priority 2016, dated 2021).
For at least one compound, name, drawing or mass did not settle the structure.

Test system: skin ulcers involving three striae distensae
Conditions: child; 2% cream twice a day, polyurethane dressings, bevacizumab continued

SMILES: COc1ccc(C2Sc3ccccc3N(CCN(C)C)C(=O)C2OC(C)=O)cc1 (stereo not drawn) [diltiazem, cis-(+)-[2-(2-dimethylaminoethyl)-5-(4-methoxyphenyl)-3-oxo-6-thia-2-azabicyclo[5.4.0]undeca-7,9,11-trien-4-yl]ethanoate]
- response to treatment: excellent
